# Assay results: PubChem BioAssay AID1487 (National Center for Advancing Translational Sciences (NCATS), 2009)
# This is one part of the list. These are further read-outs of the screen, such as a control signal, another cell line or another target. No call is given for them. Most of these compounds were active or inconclusive in the main read-out, so they are no random draw. Potencies come from curve fits of mixed quality, noted in brackets.
# Assay: qHTS Assay for Modulators of Lamin A Splicing
# Settings: HeLa LMNA splicing GFP/RFP minigene ratio, 48 h
# Procedure, shortened: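 S3 HeLa cells stably expressing lamin A-EGFP splicing minigene plus DsRed2, 600 cells/well, 48 h compound exposure at 37C. Laser-scanning cytometry; analysed as GFP (500-530 nm)/RFP (575-640 nm) total intensity ratio; 0.5% DMSO vehicle.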
# [1] = measured here: GFP splicing reporter channel
# [2] = measured here: RFP viability control channel
SMILES,AC50 [1],AC50 [2]
CC1(C)CC(=O)C(N=Nc2ccc(S(=O)(=O)N3CCCCCC3)cc2)=C(O)C1,"5.62 µM [falling, single point]","0.891 µM [falling, partial curve, poor fit]"
CC(C)c1ccc(NC(=O)Cn2nnc(C(=O)NCCc3ccccc3)c2N)cc1,"0.316 µM [falling, full curve, poor fit]","0.316 µM [falling, full curve, poor fit]"
N#C/C(=C(/O)c1ccc(F)cc1)c1nc2ccccc2s1,–,"15.8 µM [rising, single point]"
NC(=O)CCS(=O)(=O)c1ccc(Cl)cc1,"0.0631 µM [rising, partial curve, poor fit]",–
COc1ccc(OC(=O)c2cc(-c3ccc4c(c3)OCCO4)on2)cc1,–,"7.08 µM [rising, full curve, poor fit]"
COc1ccc(-c2nn(-c3ccccc3)cc2C(=O)Nc2nccs2)cc1,"4.47 µM [rising, partial curve, poor fit]","14.1 µM [rising, single point]"
Oc1ccccc1OCCOc1ccccc1OCCOc1ccccc1O,"35.5 µM [falling, single point]",–
COc1ccc2c(c1)c(C(=O)N/N=C/c1ccc(O)c(O)c1)c(C)n2C,–,"22.4 µM [rising, single point]"
CCCCc1c(C)nc2ccc(Br)cc2c1SCCC#N,–,"12.6 µM [rising, partial curve]"
CCOC(=O)c1c(C)[nH]c(C(=O)COC(=O)CNC(=O)c2ccc(Br)cc2)c1C,"3.16 µM [falling, full curve, poor fit]",–
CC(C)(C)c1cc(C(c2cccnc2)N2CCN(CCO)CC2)cc(C(C)(C)C)c1O (stereo not given),–,"10 µM [falling, partial curve]"
CC(=O)C1=NN(c2ccccc2)C(c2ccc3c(c2)OCO3)N1c1ccccc1 (stereo not given),"35.5 µM [rising, single point]","35.5 µM [rising, single point]"
Cc1ccc2c(C)nc(NC3=NCN(CCc4ccccc4)CN3)nc2c1,–,"3.16 µM [rising, partial curve, poor fit]"
Cc1cccc(/C=C2\Oc3cc(OS(C)(=O)=O)ccc3C2=O)c1,"12.6 µM [rising, single point]","5.62 µM [rising, partial curve, poor fit]"
Cc1c(N(C)CS(=O)(=O)O)c(=O)n(-c2ccccc2)n1C,"0.0355 µM [rising, full curve, poor fit]",–

# Two neighbouring records already listed, quoted:
SMILES,AC50 [1],AC50 [2]
Cc1cccc(/C=C2\Oc3cc(OS(C)(=O)=O)ccc3C2=O)c1,"12.6 µM [rising, single point]","5.62 µM [rising, partial curve, poor fit]"
Cc1c(N(C)CS(=O)(=O)O)c(=O)n(-c2ccccc2)n1C,"0.0355 µM [rising, full curve, poor fit]",–
